Test system: Ehrlich ascites carcinoma
Assay: Preventive effect against the growth of Ehrlich ascites tumor (method A)
Format: in vivo, mice
Settings: times greater than that of GANU
Description: (A) Preventive effect against the growth of Ehrlich ascites tumor:
10^6 tumor cells of Ehrlich ascites carcinoma were inoculated intraperitoneally into a group of five female mice (ICR mice, body weight: 19-23 g). A test compound was dissolved in a physiological saline solution. (In the case where CCNU was employed as the test compound, said compound was suspended in a physiological saline solution containing 0.1% NIKKOL HCO-60 (trademark; a surface active agent manufactured by Nikko Chemicals Co. Ltd.)) and administered intraperitoneally to the mice. The administration of the test compound was begun 24 hours after the inoculation of the tumor cells and performed once a day for 5 days. The volume of ascites in the treated mice were measured after 7 days of the experiment.

Row | Compound | therapeutic indexes (M. T. D./M. E. D.) relative to GANU
1 | CO[C@H]1O[C@H](CO)[C@@H](O)[C@H](N(CC(C)C)C(=O)N(CCCl)N=O)[C@H]1O [Compound 2, 1 - (2 - chloroethyl) - 1 - nitroso - 3 - isobutyl - 3 - (methyl 3 - deoxy - a - D - glucopyranosid - 3 - yl)urea] | 4 times
2 | C=CCN(C(=O)N(CCCl)N=O)[C@@H]1[C@@H](O)[C@@H](OC)O[C@H](CO)[C@H]1O [Compound 4, 1 - (2 - chloroethyl) -1 - nitroso - 3 - allyl - 3 - (methyl 3 - deoxy - α - D - glucopyranosid - 3 - yl)urea] | 4 times
3 | COCCN(C(=O)N(CCCl)N=O)[C@@H]1[C@@H](O)[C@@H](OC)O[C@H](CO)[C@H]1O [Compound 6, 1 - (2 - chloroethyl) - 1 - nitroso - 3 - (2 - methoxyethyl) - 3 - (methyl 3 - deoxy - a - D - glucopyranosid - 3 - yl)urea] | 4 times
